The test concerns the target heterogeneous nuclear ribonucleoprotein U (human (endogenous in Tfh cells)) (UniProt Q00839). The test is described as follows: co-IP; Tfh cells lysed with RIPA buffer; anti-hnRNPU antibody (1:100) and anti-CBP antibody (1:100) used to immunoprecipitate hnRNPU and CBP, respectively; Co-IP assay kit (Thermo Fisher Scientific); detection by western blotting.

Protein sequences, listed by entry. Tags and fused reporters are not part of them.
UniProt Q00839: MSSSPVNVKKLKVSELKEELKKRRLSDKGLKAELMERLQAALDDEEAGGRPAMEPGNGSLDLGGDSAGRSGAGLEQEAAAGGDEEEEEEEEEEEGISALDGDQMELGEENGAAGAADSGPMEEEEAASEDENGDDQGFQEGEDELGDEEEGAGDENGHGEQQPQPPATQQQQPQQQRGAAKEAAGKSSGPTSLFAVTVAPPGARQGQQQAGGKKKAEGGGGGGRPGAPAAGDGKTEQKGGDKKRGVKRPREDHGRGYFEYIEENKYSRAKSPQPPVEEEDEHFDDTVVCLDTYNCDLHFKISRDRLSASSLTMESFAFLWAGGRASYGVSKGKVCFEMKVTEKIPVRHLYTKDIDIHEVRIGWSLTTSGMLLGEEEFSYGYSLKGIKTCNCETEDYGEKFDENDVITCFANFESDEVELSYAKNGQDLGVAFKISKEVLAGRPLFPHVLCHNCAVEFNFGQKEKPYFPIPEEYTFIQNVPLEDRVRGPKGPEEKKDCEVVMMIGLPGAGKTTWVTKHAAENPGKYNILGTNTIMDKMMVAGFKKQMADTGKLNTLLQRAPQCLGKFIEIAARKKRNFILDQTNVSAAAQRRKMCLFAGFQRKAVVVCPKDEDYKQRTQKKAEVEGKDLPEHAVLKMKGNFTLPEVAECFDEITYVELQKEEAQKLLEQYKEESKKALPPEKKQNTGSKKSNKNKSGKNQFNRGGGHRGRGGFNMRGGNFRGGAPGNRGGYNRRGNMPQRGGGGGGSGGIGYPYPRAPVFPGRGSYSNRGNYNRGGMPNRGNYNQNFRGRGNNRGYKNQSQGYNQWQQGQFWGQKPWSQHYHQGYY
UniProt Q92793: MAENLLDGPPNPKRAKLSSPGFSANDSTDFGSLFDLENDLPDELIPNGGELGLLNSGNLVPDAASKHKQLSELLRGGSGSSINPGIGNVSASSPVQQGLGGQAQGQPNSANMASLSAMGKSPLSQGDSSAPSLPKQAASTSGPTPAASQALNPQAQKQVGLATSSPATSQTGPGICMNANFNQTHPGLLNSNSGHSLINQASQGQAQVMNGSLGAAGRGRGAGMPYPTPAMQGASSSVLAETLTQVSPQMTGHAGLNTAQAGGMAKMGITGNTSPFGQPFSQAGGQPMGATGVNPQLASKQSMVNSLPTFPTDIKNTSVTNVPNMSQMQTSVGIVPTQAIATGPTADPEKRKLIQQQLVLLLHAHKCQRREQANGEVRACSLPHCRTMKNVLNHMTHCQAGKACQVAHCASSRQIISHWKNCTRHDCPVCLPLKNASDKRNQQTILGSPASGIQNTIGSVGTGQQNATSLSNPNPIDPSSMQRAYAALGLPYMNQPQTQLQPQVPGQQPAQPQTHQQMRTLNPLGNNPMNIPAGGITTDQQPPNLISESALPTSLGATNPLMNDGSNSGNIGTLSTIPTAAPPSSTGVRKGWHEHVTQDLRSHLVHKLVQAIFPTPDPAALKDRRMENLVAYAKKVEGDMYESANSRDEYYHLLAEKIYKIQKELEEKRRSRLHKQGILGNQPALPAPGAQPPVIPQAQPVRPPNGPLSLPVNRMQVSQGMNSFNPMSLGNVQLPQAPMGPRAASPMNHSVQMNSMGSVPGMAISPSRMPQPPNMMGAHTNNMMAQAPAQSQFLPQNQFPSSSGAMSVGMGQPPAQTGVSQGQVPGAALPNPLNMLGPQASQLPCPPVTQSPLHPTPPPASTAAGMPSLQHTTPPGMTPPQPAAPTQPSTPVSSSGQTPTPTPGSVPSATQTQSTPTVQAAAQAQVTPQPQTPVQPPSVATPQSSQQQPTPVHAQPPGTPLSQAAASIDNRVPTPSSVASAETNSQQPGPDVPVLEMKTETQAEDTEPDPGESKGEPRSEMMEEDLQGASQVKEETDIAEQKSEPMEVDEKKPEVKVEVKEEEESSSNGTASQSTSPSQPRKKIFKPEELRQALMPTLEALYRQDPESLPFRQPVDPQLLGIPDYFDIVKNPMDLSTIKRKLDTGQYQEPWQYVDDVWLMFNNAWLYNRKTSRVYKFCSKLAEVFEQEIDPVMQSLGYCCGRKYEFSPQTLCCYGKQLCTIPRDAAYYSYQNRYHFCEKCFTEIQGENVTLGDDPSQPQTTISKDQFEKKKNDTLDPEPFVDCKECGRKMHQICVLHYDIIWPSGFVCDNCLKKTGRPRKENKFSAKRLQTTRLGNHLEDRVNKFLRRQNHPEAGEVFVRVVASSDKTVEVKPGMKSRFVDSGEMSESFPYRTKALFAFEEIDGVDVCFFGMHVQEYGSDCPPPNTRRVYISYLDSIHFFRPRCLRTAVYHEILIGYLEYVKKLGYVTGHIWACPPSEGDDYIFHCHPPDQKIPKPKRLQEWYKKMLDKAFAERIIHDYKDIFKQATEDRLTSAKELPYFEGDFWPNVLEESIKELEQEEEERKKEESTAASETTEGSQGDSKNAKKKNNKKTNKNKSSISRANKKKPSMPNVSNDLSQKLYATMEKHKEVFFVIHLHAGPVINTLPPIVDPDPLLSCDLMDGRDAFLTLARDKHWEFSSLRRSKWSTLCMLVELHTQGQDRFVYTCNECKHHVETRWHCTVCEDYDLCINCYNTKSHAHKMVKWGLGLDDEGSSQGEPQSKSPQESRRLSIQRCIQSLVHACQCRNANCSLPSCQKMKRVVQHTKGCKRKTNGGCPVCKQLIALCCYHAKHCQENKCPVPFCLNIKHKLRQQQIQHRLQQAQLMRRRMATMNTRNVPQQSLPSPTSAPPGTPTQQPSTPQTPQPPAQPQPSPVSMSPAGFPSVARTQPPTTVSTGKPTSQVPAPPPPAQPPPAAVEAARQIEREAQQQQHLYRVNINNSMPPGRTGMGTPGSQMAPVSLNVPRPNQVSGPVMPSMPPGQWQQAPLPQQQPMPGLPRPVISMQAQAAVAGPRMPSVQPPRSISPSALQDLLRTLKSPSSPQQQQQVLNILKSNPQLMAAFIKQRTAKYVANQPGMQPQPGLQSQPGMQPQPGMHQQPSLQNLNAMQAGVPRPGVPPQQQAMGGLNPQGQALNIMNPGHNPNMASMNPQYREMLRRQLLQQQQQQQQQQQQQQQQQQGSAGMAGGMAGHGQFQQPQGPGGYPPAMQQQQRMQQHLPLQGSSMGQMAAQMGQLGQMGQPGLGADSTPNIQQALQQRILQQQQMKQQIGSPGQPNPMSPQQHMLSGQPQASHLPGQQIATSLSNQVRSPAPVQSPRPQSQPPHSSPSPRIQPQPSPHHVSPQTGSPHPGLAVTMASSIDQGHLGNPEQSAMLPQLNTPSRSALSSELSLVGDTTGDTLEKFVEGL

Experimental findings from article PMC9708910 are described below.

No constants are given. Whether binding was seen depends on the method and setting. In cells and extracts the contact can be indirect. Some results given as binding are weak or reduced against the parent protein; the word gives no strength.

Turning to “CREB-binding protein (from UniProt Q92793 1-2442)”, the binding result was “binds”.
